Results taken from PMC6851490, “Target highlights in CASP13: Experimental target structures through the eyes of their authors” (Proteins, 2019).
These are yes or no findings as the source states them, for the method shown. A result given as binding can be weak or reduced; the word gives no strength.

Biological target: gp37 (distal part) of the Salmonella phage S16 long tail fiber (Salmonella phage S16)
Experiment: crystal structure; distal part of gp37 connected to gp38, phage S16, PDB 6F45, 1.70 Å; both purified

B1: gp38 adhesin of the Salmonella phage S16 long tail fiber (protein, UniProt M1EBB2 1-249)
chain: MAVQGPWVGSSYVAETGQNWASLAANELRVTERPFWISSFIGRSKEEIWEWTGENHSFNKDWLIGELRNRGGTPVVINIRAHQVSYTPGAPLFEFPGDLPNAYITLNIYADIYGRGGTGGVAYLGGNPGGDCIHNWIGNRLRINNQGWICGGGGGGGGFRVGHTEAGGGGGRPLGAGGVSSLNLNGDNATLGAPGRGYQLGNDYAGNGGDVGNPGSASSAEMGGGAAGRAVVGTSPQWINVGNIAGSWL
With B1 the binding was “binds”.
